# In article PMC12040169 (PLOS Biology, 2025):
# This is one part of the list.
# Tested on: T1, CTL2-GFP (C. trachomatis L2/434/Bu, GFP-expressing)
# T1 construct: L2/434/Bu, GFP-expressing
# Parameters: species or system HeLa; Intracellular C. trachomatis growth in HeLa cells, bulk GFP fluorescence relative to DMSO
# Settings: bulk GFP, single well; 28.5 h, 10 µM; inhibitor
row,SMILES,% of control remaining [%]
1,O=C(c1cccnc1)N1CCN(S(=O)(=O)c2ccc([N+](=O)[O-])cc2)CC1 [CBK264300],120.48
2,CC(C)CC(=O)NCCn1nc(-c2ccccc2F)cc1CN(C)C [CBK282005],137.005
3,C=CCNC(=O)Cn1c(-c2ccc(OC)cc2)cc2cccnc21 [CBK285363],119.976
4,CCCS(=O)(=O)Nc1ccc(=O)n2c1[C@@H]1C[C@@H](CN(C(=O)c3ccc(OC)cc3)C1)C2 [CBK288711],143.601
5,CCOC(=O)c1cc(S(=O)(=O)NC2CCN(C(=O)OCC)CC2)cn1C [CBK304665],123.189
6,O=C(NCCc1ccccn1)c1ccc(Cl)cc1Cl [CBK015946],118.507
7,COc1ccc(CCNC(=O)/C=C/C(=O)O)cc1OC [CBK265373],100
8,Cc1cc(CNS(=O)(=O)c2cccc3nonc23)no1 [CBK062263],91.3354
9,O=C(O)c1cccc(N2N=C(c3ccccc3)CC2=O)c1 [CBK286966],139.17
10,CN1CCC(N(C)Cc2coc3ccccc3c2=O)CC1 [CBK261578],83.8975
11,O=C(c1ccccc1F)N1CCC(c2nnc3n2CCCCC3)CC1 [CBK284628],141.423
12,O=[N+]([O-])c1ccc(N2CCN(S(=O)(=O)c3ccc(Cl)cc3)CC2)cc1NCc1cccnc1 [CBK264749],87.6397
13,O=C(CC1CC1)N1CCCC2(CCN(C(=O)c3cc(F)c(F)cc3F)C2)C1 (stereo not drawn) [CBK131531],100
14,Cc1ccc2c(c1)C(NC(=O)C1CC1)CC1(CCOCC1)O2 (stereo not drawn) [CBK284879],125.043
15,CC1=NS(=O)(=O)NC2=C1CCCC2 [CBK022998],134.635
16,O=C(c1ccc2nccnc2c1)N1CCN(c2ccccc2)CC1 [CBK200209],96.5525
17,CN(Cc1ccncn1)C(=O)c1cn(CC2CCCO2)nn1 (stereo not drawn) [CBK307081],125.293
18,CCC(C)(C)c1ccc(S(=O)(=O)N2CCCN(Cc3ccnc4ccccc34)CC2)cc1 [CBK062865],127.908
19,c1ccc(CCNc2cncc(-c3cc4ccccc4o3)n2)nc1 [CBK066036],148.95
20,Cc1cc(Br)ccc1C(=O)Nc1ccc2ncccc2c1 [CBK159814],95.6964
21,O=C(OCC(=O)c1cccc2ccccc12)c1cc2ccccc2cc1O [CBK265526],105.552
22,C=CCn1c(S)nnc1-c1ccc(Br)cc1 [CBK096756],104.796
23,CCOC(=O)c1cnn(C2CCCN(Cc3cccc(O)c3)C2)c1 (stereo not drawn) [CBK304046],134.236
24,Cc1nc(NS(=O)(=O)c2cc(Br)c(Cl)s2)sc1C(=O)O [CBK045560],135.168
25,CC1CC(=O)C2C=C(c3ccc(Br)cc3)NN=C2C1 (stereo not drawn) [CBK021352],116.221
26,Cc1nonc1CNC(=O)N1CCOCC(C2CCC2)C1 (stereo not drawn) [CBK304086],118.852

row,SMILES,% of control remaining [%]
1,Cc1ccc(C(=O)O)cc1S(=O)(=O)N(C)CCO [CBK267167],117.82
2,CC(C)(C)Nc1cc(NCCc2ccccc2)nc(N)n1 [CBK012708],130.534
3,O=C1NCCN1C1CCN(c2ncnc3ccccc23)CC1 [CBK304896],79.0941
4,Cn1c(Sc2ccc(C#N)cn2)nnc1-c1ccco1 [CBK297756],111.226
5,Nn1c(SCC(=O)Nc2cccc3ccccc23)nnc1-c1ccccc1Cl [CBK266080],159.337
6,Cc1ccc(C(=O)N2Cc3ccccc3C2)cn1 [CBK200318],151.298
7,CCc1ccc2c(c1)C(CCNC(=O)c1c(C)noc1C(F)F)C(=O)N2 (stereo not drawn) [CBK304090],107.716
8,CCCCOc1ccccc1NC(=O)CC1NCCNC1=O (stereo not drawn) [CBK269299],152.042
9,CN(C)/C=N/c1ncnc2c1nc(Br)n2C1CC(O)C(CO)O1 (stereo not drawn) [CBK201277],201.722
10,O=C(CCN1C(=O)/C(=C/c2ccc(F)cc2)SC1=S)NNC(=O)c1cccnc1 [CBK262862],104.448
11,COc1ccc(C(=O)N2CCC3(CCCN(C(=O)c4ccc5[nH]c(=O)[nH]c5c4)C3)C2)cc1OC (stereo not drawn) [CBK137086],108.75
12,CCc1nnc(NS(=O)(=O)c2ccc(N/C=C3\C(=O)N(c4ccc(Cl)cc4)N=C3C)cc2)s1 [CBK262416],18.735
13,CC(C)(C)C1CCc2c(sc(NC(=S)NC(=O)c3cc4ccccc4o3)c2C(N)=O)C1 (stereo not drawn) [CBK268635],166.505
14,c1ccc(N2CCN(c3cc(-c4cc5ccccc5s4)ncn3)CC2)nc1 [CBK091084],124.623
15,O=C1CC(c2ccc(F)cc2)CC(=O)C1=CNCCN1CCN(C(=S)Nc2ccccc2)CC1 (stereo not drawn) [CBK264784],135.373
16,Nc1ncnc2c1C(c1ccc(Cl)cc1)c1c(ccc3ccccc13)O2 (stereo not drawn) [CBK263938],88.2888
17,O=C(CSc1nnc(-c2ccncc2)n1-c1ccccc1)N/N=C/c1c[nH]c2ccccc12 [CBK262776],123.994
18,CCc1nn(CC(=O)N2CCCC(C)C2)c(=O)c2cc3occc3n12 (stereo not drawn) [CBK283657],111.715
19,Cc1cc(CNC(=O)Nc2ccc(F)c(-n3nnnc3C)c2)n(C)n1 [CBK305525],170.434
20,CCCNC(=O)C(C)NC(=O)C1=Cc2ccccc2OC1 (stereo not drawn) [CBK297937],113.322
21,CC(c1ncc(Br)cn1)N1CCN(Cc2noc(C(C)(C)C)n2)CC1 (stereo not drawn) [CBK306168],128.447
22,CN1CCC(=NNC(=O)CN(c2cccc([N+](=O)[O-])c2)S(=O)(=O)c2ccccc2)CC1 [CBK262727],112.361
23,CC(C)c1ccc(/C=C/C(=O)NCc2ccc3occc3c2)cc1 [CBK149620],100
24,CCc1cc(C(=O)N2CCC(Oc3ccccc3F)CC2)n(C)n1 [CBK282172],78.8493
25,CN1CCN(C(=O)c2ccsc2NS(=O)(=O)c2ccc(Oc3ccccc3)cc2)CC1 [CBK042277],100

# Exported with tabs: entries from further up.
row	SMILES	% of control remaining [%]
5	Nn1c(SCC(=O)Nc2cccc3ccccc23)nnc1-c1ccccc1Cl [CBK266080]	159.337
6	Cc1ccc(C(=O)N2Cc3ccccc3C2)cn1 [CBK200318]	151.298
7	CCc1ccc2c(c1)C(CCNC(=O)c1c(C)noc1C(F)F)C(=O)N2 (stereo not drawn) [CBK304090]	107.716
8	CCCCOc1ccccc1NC(=O)CC1NCCNC1=O (stereo not drawn) [CBK269299]	152.042
9	CN(C)/C=N/c1ncnc2c1nc(Br)n2C1CC(O)C(CO)O1 (stereo not drawn) [CBK201277]	201.722
10	O=C(CCN1C(=O)/C(=C/c2ccc(F)cc2)SC1=S)NNC(=O)c1cccnc1 [CBK262862]	104.448
11	COc1ccc(C(=O)N2CCC3(CCCN(C(=O)c4ccc5[nH]c(=O)[nH]c5c4)C3)C2)cc1OC (stereo not drawn) [CBK137086]	108.75
12	CCc1nnc(NS(=O)(=O)c2ccc(N/C=C3\C(=O)N(c4ccc(Cl)cc4)N=C3C)cc2)s1 [CBK262416]	18.735
13	CC(C)(C)C1CCc2c(sc(NC(=S)NC(=O)c3cc4ccccc4o3)c2C(N)=O)C1 (stereo not drawn) [CBK268635]	166.505
14	c1ccc(N2CCN(c3cc(-c4cc5ccccc5s4)ncn3)CC2)nc1 [CBK091084]	124.623
15	O=C1CC(c2ccc(F)cc2)CC(=O)C1=CNCCN1CCN(C(=S)Nc2ccccc2)CC1 (stereo not drawn) [CBK264784]	135.373
16	Nc1ncnc2c1C(c1ccc(Cl)cc1)c1c(ccc3ccccc13)O2 (stereo not drawn) [CBK263938]	88.2888
17	O=C(CSc1nnc(-c2ccncc2)n1-c1ccccc1)N/N=C/c1c[nH]c2ccccc12 [CBK262776]	123.994
18	CCc1nn(CC(=O)N2CCCC(C)C2)c(=O)c2cc3occc3n12 (stereo not drawn) [CBK283657]	111.715
